The values that follow come from PubChem BioAssay AID328 (DTP/NCI, 2004).

This assay relates to BDF1 mice, P388 leukemia ip, median survival T/C. Nature of the assay: NCI In Vivo Anticancer Drug Screen. Data for tumor model P388 Leukemia (intraperitoneal) in B6D2F1 (BDF1) mice. The conditions noted are these: T/C endpoint: median survival time, higher T/C = longer survival. An outline of the steps: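 Transplantable tumour in mice; compound vs vehicle dosing; survival scored; ratio of treated to control reported.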

The mark [1] stands for this setting: dose: 200.0 mg/kg/injection, schedule: Q01DX009 (ip), vehicle: saline with Tween-80.
Where [2] appears, read: dose: 400.0 mg/kg/injection, schedule: Q01DX009 (ip), vehicle: saline with Tween-80.
Where [3] appears, read: dose: 25.0 mg/kg/injection, schedule: Q04DX003 (ip), vehicle: saline with Tween-80.
The mark [4] stands for this setting: dose: 50.0 mg/kg/injection, schedule: Q01DX009 (ip), vehicle: saline with Tween-80.
[5] abbreviates: dose: 100.0 mg/kg/injection, schedule: Q01DX009 (ip), vehicle: saline with Tween-80.
Setting [6] is: dose: 50.0 mg/kg/injection, schedule: Q04DX003 (ip), vehicle: saline with Tween-80.

The list shows only some results of the screen, not a fair sample: it is rich in T/C values a quarter to a half above the control, in often repeated tests (any T/C) and in doses without a T/C. Further doses and runs are listed elsewhere. T/C is the treated group as % of the vehicle group. Some entries give survivors of the animals treated and no T/C: the source files T/C as zero there, which appears to mark a toxic dose or a test without result, not a measured value. Some doses without a T/C left all or most animals alive at the check, yet need not have been tolerated: the source hardly ever lists a survival T/C far under the control, and the zero likely stands for such cases as well. Survivors were counted at the toxicity check, usually on the fifth day, unless a day is given; later deaths do not show. Schedules are NCI's codes, taken here to give the interval after Q, in days (D) or hours (H), and the number of doses after X. Where survival is the endpoint, this PubChem deposit counts one and a half times the control or more as active, and values a quarter to a half above the control carry no call in these data; other NCI protocols may use other cut-offs. Some doses were run more than once; their values stand side by side, smallest first.

In the case of `COc1cc(OC)c(OC)cc1/C=C\c1ccnc2ccccc12`, the T/C (dose: 100.0 mg/kg/injection, schedule: Q01DX009 (ip), vehicle: carboxymethylcellulose (CMC)) is 131 % of control and the T/C (dose: 300.0 mg/kg/injection, schedule: Q01DX010 (ip), vehicle: saline) was 130 % of control.
`Fc1ccccc1C1=NCC(=S)N(CC(F)(F)F)c2ccc(Cl)cc21`: the survivor count under setting [1] is listed as 3 of 6.
As for `COc1cccc(C)c1NC1=NCCO1`, the survivor count was 3 of 6 (dose: 3.13 mg/kg/injection, schedule: Q04DX003 (ip), vehicle: saline with Tween-80) and 5 of 6 (dose: 6.25 mg/kg/injection, schedule: Q04DX003 (ip), vehicle: saline with Tween-80).
In the case of `CC(=O)Nc1cc2c(cc1[N+](=O)[O-])-c1ccccc1C2O` (stereo unspecified), the survivor count under setting [2] is recorded as 4 of 6.
Turning to `COc1ccc(CC2c3cc(OC)c(OC)c(OC)c3CC[N+]2(C)C)cc1Oc1ccc(CC2c3cc4c(c(OC)c3CCN2C)OCO4)cc1` (stereo unspecified), the survivor count by setting is: (dose: 25.0 mg/kg/injection, schedule: Q04DX002 (ip), vehicle: saline with Tween-80) 0 of 6; (dose: 50.0 mg/kg/injection, schedule: Q04DX002 (ip), vehicle: saline with Tween-80) 0 of 6; (dose: 100.0 mg/kg/injection, schedule: Q04DX002 (ip), vehicle: saline with Tween-80) 0 of 6.
For the compound `COc1cc2cc3c4cc5c(cc4cc[n+]3c(C)c2cc1OC)OCO5` (tested in a mixture with another compound), the T/C (dose: 2.2 mg/kg/injection, schedule: Q04DX003 (ip), vehicle: saline) was 126 % of control; the T/C (dose: 3.3 mg/kg/injection, schedule: Q04DX003 (ip), vehicle: saline) was 129 % of control; the T/C (dose: 5.0 mg/kg/injection, schedule: Q04DX003 (ip), vehicle: saline) was 147 % of control; the T/C (dose: 11.0 mg/kg/injection, schedule: Q04DX003 (ip), vehicle: saline) was 136 % of control; the T/C (dose: 37.5 mg/kg/injection, schedule: Q04DX003 (ip), vehicle: saline) is 145 % of control; the T/C (dose: 150.0 mg/kg/injection, schedule: Q04DX003 (ip), vehicle: saline) was 127 % of control.
Take `c1ccc2c(c1)[nH]c1nc3ccncc3nc12`: under “dose: 200.0 mg/kg/injection, schedule: Q04DX003 (ip), vehicle: saline with Tween-80”, the survivor count is given as 5 of 6.
Regarding `C/C(=C\C1C/C(=C/CCc2ccoc2)C(=O)O1)CCCc1ccoc1` (stereo unspecified), the T/C (dose: 10.0 mg/kg/injection, schedule: Q01DX009 (ip), vehicle: other) was 132 % of control.
Regarding `O=S1(=O)CC(O)C(Cl)C1` (stereo unspecified), the survivor count (dose: 400.0 mg/kg/injection, schedule: Q01DX001 (ip), vehicle: saline) is 3 of 6.
Turning to `COc1ccc(C(=O)C=C(C(F)(F)F)C(F)(F)F)cc1`, the survivor count under setting [3] was 6 of 6.
With `COc1ccc(/C=C/c2ccnc3ccccc23)cc1`, under setting [4], the survivor count was 6 of 6.
Consider `CCC1OCC(C(Cl)CCl)O1` (stereo unspecified), for which the T/C under setting [1] is 136 % of control. In addition, the survivor count under setting [2] is recorded as 0 of 6.
Turning to `C/C(=N/NC(=O)c1ccccc1)c1ccc(Cl)cc1Cl`, the survivor count is 5 of 6 (dose: 40.0 mg/kg/injection, schedule: Q01DX009 (ip), vehicle: Klucel (hydroxypropylcellulose) (HPC)) and 5 of 6 (dose: 135.0 mg/kg/injection, schedule: Q04DX003 (ip), vehicle: Klucel (hydroxypropylcellulose) (HPC)).
As for `Cn1ncc2c(N)ncnc21`, the survivor count reads like this: (dose: 12.5 mg/kg/injection, schedule: Q01DX009 (ip), vehicle: Klucel (hydroxypropylcellulose) (HPC)) 5 of 6; (dose: 25.0 mg/kg/injection, schedule: Q01DX009 (ip), vehicle: Klucel (hydroxypropylcellulose) (HPC)) 6 of 6; (dose: 50.0 mg/kg/injection, schedule: Q01DX009 (ip), vehicle: Klucel (hydroxypropylcellulose) (HPC)) 6 of 6; (dose: 100.0 mg/kg/injection, schedule: Q01DX009 (ip), vehicle: Klucel (hydroxypropylcellulose) (HPC)) 2 of 6.
As for `COC1CCC(C)(C=O)C(C#N)(C#N)C1(C#N)C#N` (stereo unspecified), the survivor count by setting is: (dose: 100.0 mg/kg/injection, schedule: Q01DX001 (ip), vehicle: saline with Tween-80) 0 of 6; (dose: 200.0 mg/kg/injection, schedule: Q01DX001 (ip), vehicle: saline with Tween-80) 0 of 6.
Turning to `CCCCNC(C)(C)C(SSC(c1cccs1)C(C)(C)NCCCC)c1cccs1` (stereo unspecified), the survivor count under setting [5] is on record as 6 of 6.
As to `CC1(C)CC(=O)C(C)(C)C(=O)C1`, the survivor count (dose: 12.5 mg/kg/injection, schedule: Q04DX003 (ip), vehicle: saline with Tween-80) is listed as 6 of 6; the survivor count (dose: 25.0 mg/kg/injection, schedule: Q01DX009 (ip), vehicle: saline with Tween-80) was 0 of 6; the survivor count under setting [6] was 1 of 6.
Turning to `O=C(NNC1CCCCC1)c1ccccc1`, the survivor count is, setting by setting: under setting [4], 6 of 6; under setting [5], 4 of 6.
As for `Cc1cccc(C)c1NC(=O)N(CCCl)N=O`, under setting [6], the T/C is 127 % of control. Further, the survivor count is, setting by setting: (dose: 100.0 mg/kg/injection, schedule: Q01DX009 (ip), vehicle: saline sonified) 5 of 6; (dose: 200.0 mg/kg/injection, schedule: Q01DX009 (ip), vehicle: saline sonified) 0 of 6; (dose: 400.0 mg/kg/injection, schedule: Q01DX009 (ip), vehicle: saline sonified) 0 of 6.
With `C(COCC1CO1)OCC1CO1` (stereo unspecified), the T/C is, setting by setting: under setting [3], 125 % of control; (dose: 50.0 mg/kg/injection, schedule: Q04DX003 (ip), vehicle: saline) 125 and 129 % of control; (dose: 100.0 mg/kg/injection, schedule: Q04DX003 (ip), vehicle: saline) 145 % of control. Moreover, the survivor count (dose: 100.0 mg/kg/injection, schedule: Q01DX009 (ip), vehicle: saline) is recorded as 4 of 6 and the survivor count (dose: 200.0 mg/kg/injection, schedule: Q04DX003 (ip), vehicle: saline) was 6 of 6.
In the case of `CCOC(=O)Nc1nc(NC(=O)OCC)c(Cl)nc1Cl`, the survivor count (dose: 50.0 mg/kg/injection, schedule: Q04DX003 (ip), vehicle: water) is 6 of 6.
Take `NC(Cc1ccc(N(CCCl)CCCl)cc1)C(=O)O` (stereo unspecified): the T/C (dose: 10.0 mg/kg/injection, schedule: Q01DX010 (ip), vehicle: saline) was 140 % of control.
With `COc1cc2c(c(OC)c1OC)-c1ccc(OC)c(=O)cc1[C@@H](NC(=O)C(F)(F)F)CC2`, the T/C runs as follows: (dose: 0.02 mg/kg/injection, schedule: Q01DX009 (ip), vehicle: Klucel (hydroxypropylcellulose) (HPC)) 140 % of control; (dose: 0.04 mg/kg/injection, schedule: Q01DX009 (ip), vehicle: Klucel (hydroxypropylcellulose) (HPC)) 136 % of control. The survivor count runs as follows: (dose: 0.78 mg/kg/injection, schedule: Q01DX009 (ip), vehicle: Klucel (hydroxypropylcellulose) (HPC)) 6 of 6; (dose: 1.56 mg/kg/injection, schedule: Q01DX009 (ip), vehicle: Klucel (hydroxypropylcellulose) (HPC)) 6 of 6; (dose: 3.12 mg/kg/injection, schedule: Q01DX009 (ip), vehicle: Klucel (hydroxypropylcellulose) (HPC)) 4 of 6; (dose: 6.25 mg/kg/injection, schedule: Q01DX009 (ip), vehicle: Klucel (hydroxypropylcellulose) (HPC)) 2 of 6.
Take `CCNC(C)(C)C(SS(=O)(=O)O)c1cccs1` (stereo unspecified): the survivor count (dose: 400.0 mg/kg/injection, schedule: Q01DX009 (ip), vehicle: water) is on record as 2 of 6.
`COc1cc(NC(C)CCCN)c2nccc(C)c2c1` (stereo unspecified): where the note is “dose: 200.0 mg/kg/injection, schedule: Q01DX009 (ip), vehicle: saline”, the survivor count is recorded as 2 of 6.
`CCOC(=O)/C(C#N)=C/c1c(-c2ccccc2)nn2ccccc12`: the survivor count under setting [1] is reported as 4 of 6.
